Measurements: paper PMC10219569
Where a chain is given by its changes, count along the chain named. No constants are given. Whether binding was seen depends on the method and setting. In cells and extracts the contact can be indirect. Some results given as binding are weak or reduced against the parent protein; the word gives no strength. For part of these data: Where a sequence is shown, tags or fusion partners need not be part of it.

Sequences of proteins named here, by UniProt entry; tags and fusion partners are left off.
UniProt Q9NNX6: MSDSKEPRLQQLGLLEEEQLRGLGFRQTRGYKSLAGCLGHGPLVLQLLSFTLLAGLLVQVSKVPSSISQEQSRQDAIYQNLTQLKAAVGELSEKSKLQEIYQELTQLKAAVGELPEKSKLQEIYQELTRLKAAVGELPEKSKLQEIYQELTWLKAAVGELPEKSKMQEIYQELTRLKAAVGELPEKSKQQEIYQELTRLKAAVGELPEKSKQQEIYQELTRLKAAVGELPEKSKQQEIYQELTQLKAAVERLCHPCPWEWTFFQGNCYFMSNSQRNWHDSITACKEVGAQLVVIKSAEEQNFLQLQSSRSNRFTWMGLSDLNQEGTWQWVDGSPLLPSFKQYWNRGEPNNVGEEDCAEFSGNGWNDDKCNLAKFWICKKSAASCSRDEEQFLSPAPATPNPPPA

What was measured:
HA-ATG9 = molecular target: T1, HA-ATG9 (UniProt Q7Z3C6); experiment: co-IP; HEK-DC-SIGN cells transfected with HA-ATG9 constructs, treated or not with ManLAM for 30 min; lysates on Protein A/G sepharose beads pre-coated with anti-HA overnight; blot for DC-SIGN
T1 sequence: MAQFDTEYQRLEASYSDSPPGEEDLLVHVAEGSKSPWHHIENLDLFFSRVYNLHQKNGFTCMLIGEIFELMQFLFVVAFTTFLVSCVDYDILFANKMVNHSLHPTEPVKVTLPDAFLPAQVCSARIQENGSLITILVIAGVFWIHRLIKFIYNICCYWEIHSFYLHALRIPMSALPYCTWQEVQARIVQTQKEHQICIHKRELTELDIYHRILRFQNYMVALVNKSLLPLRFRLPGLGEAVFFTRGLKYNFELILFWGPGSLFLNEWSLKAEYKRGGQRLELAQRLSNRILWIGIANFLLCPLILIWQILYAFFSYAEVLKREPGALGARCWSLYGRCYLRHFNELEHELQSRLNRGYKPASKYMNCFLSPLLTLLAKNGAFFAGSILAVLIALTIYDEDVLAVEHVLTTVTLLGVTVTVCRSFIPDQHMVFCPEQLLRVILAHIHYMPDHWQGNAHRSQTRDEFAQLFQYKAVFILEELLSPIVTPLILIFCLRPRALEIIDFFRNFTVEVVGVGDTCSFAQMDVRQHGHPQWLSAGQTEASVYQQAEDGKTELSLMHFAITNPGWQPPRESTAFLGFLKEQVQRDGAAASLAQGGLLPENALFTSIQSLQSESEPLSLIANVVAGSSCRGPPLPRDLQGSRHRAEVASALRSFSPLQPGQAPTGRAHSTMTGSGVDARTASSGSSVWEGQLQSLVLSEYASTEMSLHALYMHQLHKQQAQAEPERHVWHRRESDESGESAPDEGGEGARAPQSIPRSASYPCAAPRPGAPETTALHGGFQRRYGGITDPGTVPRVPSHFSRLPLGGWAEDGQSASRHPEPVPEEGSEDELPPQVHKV

HA-ATG9 N99D = molecular target: T2, HA-ATG9 N99D (UniProt Q7Z3C6); experiment: as above
T2 sequence: T1 sequence with N99D

GST-LC3A = GST-LC3A (UniProt Q9H492); experiment: pull-down; HEK293T cells co-transfected with DC-SIGN WT and GST-LC3 constructs; cells engaged or not with DC-SIGN mAbs (5 ug/mL) for 30 min; lysates incubated with glutathione-sepharose beads 3 h at 4 C; blot with anti-DC-SIGN

| Substance | binding (HA-ATG9) | binding (HA-ATG9 N99D) | binding (GST-LC3A) |
| --- | --- | --- | --- |
| DC-SIGN stably expressed in HEK-DC-SIGN cells (from UniProt Q9NNX6 1-404) (receptor) | binds | binds | – |
| wild-type DC-SIGN (from UniProt Q9NNX6 1-404) (receptor) | – | – | binds |
